The record followed here is PubChem BioAssay AID1347426 (Functional Genomics Laboratory (NCATS/FGL), 2020).

The campaign covered roughly 31,000 sequences. About 1,400 (4.5%) were called active.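 The calls were made as follows: active = median seed-adjusted z-score above 1 or below -1; inactive = the rest.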 The list shows a part of the results.

This assay in a line: Novel Modifiers of Survival Motor Neuron (SMN) Protein: Gene Identification via Genome-wide siRNA Screen.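 Also: luminescence tracks full-length SMN protein made from the SMN2 reporter.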 Conditions: HEK293T SMN2-luciferase reporter, siRNA knockdown, 72 h; actives lie on both sides. A digest of the protocol:
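siRNA screen, 10418 genes ×3 siRNAs; 1 pmol/well, lipid reverse transfection into HEK293T SMN2-luc reporter line. 72 h, 37 °C, 5% CO2; ONE-Glo readout. Data: neg-ctrl normalized, log10, MAD; hit = MAD >1.0 or < -1.0.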
(In general: A reporter such as luciferase makes a cellular process visible.)
Take GCAUGGAUAUUUUAAGGGUTT against NELL2: the median seed-adjusted z-score is inactive: 0.0918. CCUUCUAAUUGAUAAGGCATT against ZNF611: the median seed-adjusted z-score is inactive: -0.0392. To AAGGCAUCGUGAUAUCACUTT against SLC10A1 belongs inactive: -0.19; to GCUUAUUGUUAUUAGAUCUTT against EIF2S3, inactive: -0.0572; to GUACGUUAGUGUUCGCGAUTT against SUB1, inactive: -0.571. On to AGUAUUUGUUGGUUCAUAATT against FXC1, for which the median seed-adjusted z-score was inactive: -0.00735.

As for GCAUUCUACUCAGUGCUCUTT against MFSD9, the median seed-adjusted z-score was inactive: 0.36.

On to CGAGAGAGGUUCUUAUAGATT against MTAP, for which the median seed-adjusted z-score was inactive: -0.0621. To CCUAAUGACAGAAUGAAUATT against SIVA1 belongs inactive: 0.0451; to CGAUUUGAAGGUCCAUAUATT against DNAJC2, inactive: -0.0357.

In the case of CUGCUAGUCUGUCUCCAAATT against SPINK7, the median seed-adjusted z-score was inactive: -0.409. To GGAGAUAUGUAUCCUAUCATT against KCNG3 belongs inactive: 0.0832. To GCAACAAGGUGGACUCCUATT against HSPG2 belongs inactive: 0.478; to CAGGCUACAUCUUUGCUUUTT against PIGA, inactive: -0.0514; to CAAGCAUAGUCUAGGCAAATT against PPARGC1B, inactive: -0.366. With CGUAAGAACUGAGAUAGGATT against CAMK4, the median seed-adjusted z-score was inactive: 0. In the case of GUCCUAACCUGAUUAUAAATT against REXO2, the median seed-adjusted z-score was inactive: -0.0419. With GAAUACCGACAAUACACUATT against VDAC1, the median seed-adjusted z-score was inactive: 0.133. As for GAUGAUAUCCUACUAGGCATT against CD302, the median seed-adjusted z-score was inactive: 0.0818.

As for GCAGUCUACCAAUCGAAAATT against CGN, the median seed-adjusted z-score was inactive: 0.33. As to GGCAUUAUGUGAAGGCGAATT against SMC5, the median seed-adjusted z-score is inactive: 0.0666. On to GAUUUUCGGCAGAAACGUATT against ARHGEF12, for which the median seed-adjusted z-score was inactive: 0.136. For the sequence CGUCAACUCUCAGAUCCAATT against SNX8, the median seed-adjusted z-score is inactive: 0.115. As to CUGUUUCGAUGGAUCGGCATT against SLC28A1, the median seed-adjusted z-score is inactive: 0.129.

Turning to CUGGAAUGGUUGUCUGGUATT against SERTAD1, the median seed-adjusted z-score was inactive: 0.376. With CACUAAUCGUGAGCAUGGATT against XRCC5, the median seed-adjusted z-score was active: -1.11.

For CAUCCGCACCUACACCUAUTT against GBA, the median seed-adjusted z-score was inactive: -0.492. In the case of CCGAAGUAUGUGGAAUUUATT against FUCA2, the median seed-adjusted z-score is inactive: 0.562. In the case of GUUUGUCUACAGUUCGUAATT against ABCB1, the median seed-adjusted z-score was inactive: -0.384. As to GGCGGUAUAUGACAACCAATT against PCDH9, the median seed-adjusted z-score was inactive: 0.165. As for GGAGCAUCGUGUGACCAUUTT against NLP, the median seed-adjusted z-score was inactive: -0.186. For the sequence AGGCAACCAUUGGGAUUGATT against RAB6B, the median seed-adjusted z-score was inactive: 0. Turning to GCCUCCUUAGUAUUCCAAATT against PRKRA, the median seed-adjusted z-score is inactive: 0.00259. To GGAUAUUCAGGUUCGUGAATT against EIF4A3 belongs inactive: 0.126; to GGGCUUGAAUCUCAAUACATT against PLA2G4A, inactive: 0.608; to CCGAAAGAAUUAUCGCAAATT against MYO1A, inactive: -0.0501.

For the sequence CCUUCACUGUGACGAAAUATT against CAV1, the median seed-adjusted z-score was inactive: 0.

On to GGAUCUUCACACGAUCAAATT against DDEF2, for which the median seed-adjusted z-score was inactive: 0.438.

On to GGGUCAUAGAUACAACAAUTT against PROX2, for which the median seed-adjusted z-score was inactive: -0.825. Consider CCACUCACCCGAUCUCCUATT against GGTLC2, for which the median seed-adjusted z-score is inactive: -0.288. To CGAGGAUAUUGUGGAAUCATT against PROCA1 belongs inactive: -0.502; to AAAUCGAUGGAGUCCUUUATT against STOML2, inactive: -0.264; to GGAUGUUGGUGGUCAAGAUTT against ARF4, inactive: 0.346. For the sequence AGACGAAGGUUCAACAUCATT against TFEB, the median seed-adjusted z-score is inactive: 0.34. Take CCAAGGUUAUUAUCGCUGUTT against IGSF10: the median seed-adjusted z-score is inactive: -0.0992. Turning to GGCCGGGAACUGUUGGUUUTT against SYPL2, the median seed-adjusted z-score was inactive: 0.233. With CUAUAGCAAGUGAACUAAATT against COG5, the median seed-adjusted z-score is inactive: -0.0609. GUCUGAACAUAAGACUAAATT against SCYL2: the median seed-adjusted z-score is inactive: -0.0652. For GGACUUCGAUUCUUUGGAATT against BIK, the median seed-adjusted z-score was inactive: 0.0492.

With GCGGUAAACUCGACACGUUTT against MARK3, the median seed-adjusted z-score was inactive: 0.271. As to GCUCUGUCAAGCUAACUGATT against PAK1, the median seed-adjusted z-score is inactive: -0.168.

With GGGCAUCCAUUUAAAGGCUTT against FRRS1, the median seed-adjusted z-score is inactive: -0.4.

Take GAUACUAUGUUACAGGAGATT against ACSS2: the median seed-adjusted z-score was inactive: 0.

In the case of GGGCUUUAAAUAUGAGAUUTT against GRID1, the median seed-adjusted z-score is inactive: 0.66. GAUAGUGACAGGUUAAUGATT against TIGD6: the median seed-adjusted z-score is inactive: -0.443. In the case of GCCGCCUACUAUUACAUCATT against SNRNP200, the median seed-adjusted z-score is inactive: 0.889.

For GGACACCUAUGAGGAAGUATT against PCYT2, the median seed-adjusted z-score was inactive: 0.217. As for GCAAGUAUUUUGACAAGGUTT against KIF7, the median seed-adjusted z-score is inactive: 0.0274. As to ACAACAUGAAGGUCCUCUATT against THY1, the median seed-adjusted z-score was active: -1.1.

GUCUCGUAGUGUUAUGUCUTT against GBA2: the median seed-adjusted z-score was inactive: 0.143. Take GCUACGAAAUGCUUGCUCATT against GALT: the median seed-adjusted z-score is inactive: 0.484. The same measure for GCUUUUGACGAAACCAAGATT against PDIA2: inactive: 0.151; for ACAACGUGGUGAGAUGCAATT against LOXL1: inactive: 0.0435. As for GCACGUAUGUAGACGGAGATT against SETD7, the median seed-adjusted z-score was inactive: -0.0831.

Regarding GACCAGUUUUGAUAGUCAATT against SYT10, the median seed-adjusted z-score was inactive: 0. For the sequence CCGGUGAAUUUACAGACUUTT against ZW10, the median seed-adjusted z-score is inactive: 0.199. With GGCGAAUUCCAUACCGUUATT against NEK2, the median seed-adjusted z-score was inactive: -0.276. Take GGCUGGAAAUCUCGCCUAUTT against ABCB4: the median seed-adjusted z-score is inactive: 0. To GCACCUCUACAGGAACUUUTT against TSC2 belongs active: 1.11.
